PMC8198571
No constants are given. Whether binding was seen depends on the method and setting. A result given as binding can be weak or reduced; the word gives no strength. Blank lines part the entries; values can stand above or below the binder they belong to.

Experiments:
Experiment in all cases: two-hybrid; C-terminus regions of MLO proteins against CaM/CML proteins; CML12 in pGADT7 (AD), MLO4C in pGBKT7 (BD); yeast strain AH109; selection on SD/-Trp-Leu-His-Ade plates for 3 to 7 days
[1] = target: NTA variant W455R (C-terminus) (Arabidopsis thaliana)
[2] = target: NTA variant K457N (C-terminus) (Arabidopsis thaliana)
[3] = target: NTA variant L464R (C-terminus) (Arabidopsis thaliana)
[4] = target: NTA variant L452R (C-terminus) (Arabidopsis thaliana)

binding [1]: no binding
binding [2]: no binding
binding [3]: no binding
binding [4]: no binding
B1: CML9 (protein, UniProt Q9S744 1-151)
chain: MADAFTDEQIQEFYEAFCLIDKDSDGFITKEKLTKVMKSMGKNPKAEQLQQMMSDVDIFGNGGITFDDFLYIMAQNTSQESASDELIEVFRVFDRDGDGLISQLELGEGMKDMGMKITAEEAEHMVREADLDGDGFLSFHEFSKMMIAASY

binding [1]: binds
binding [2]: binds
binding [3]: binds
binding [4]: binds
B2: CML10 (protein, UniProt P30187 1-191)
chain: MANKFTRQQISEFREQFSVYDKNGDGHITTEEFGAVMRSLGLNLTQAELQEEINDSDLDGDGTINFTEFLCAMAKDTYSEKDLKKDFRLFDIDKNGFISAAEMRYVRTILRWKQTDEEIDEIIKAADVDGDGQINYREFARLMMAKNQGHDTKYDTTGGTLERDLAAGVAKNIIAAPMTDFIKNLFEALFS
